Experimental findings from article PMC5241286 are described below.

These are yes or no findings as the source states them, for the method shown. Some results given as binding are weak or reduced against the parent protein; the word gives no strength.

The target of the experiment is T1, Mia40 (mitochondrial intermembrane space import and assembly protein 40) (yeast (endogenous in purified yeast mitochondria)) (UniProt P36046).
T1 sequence: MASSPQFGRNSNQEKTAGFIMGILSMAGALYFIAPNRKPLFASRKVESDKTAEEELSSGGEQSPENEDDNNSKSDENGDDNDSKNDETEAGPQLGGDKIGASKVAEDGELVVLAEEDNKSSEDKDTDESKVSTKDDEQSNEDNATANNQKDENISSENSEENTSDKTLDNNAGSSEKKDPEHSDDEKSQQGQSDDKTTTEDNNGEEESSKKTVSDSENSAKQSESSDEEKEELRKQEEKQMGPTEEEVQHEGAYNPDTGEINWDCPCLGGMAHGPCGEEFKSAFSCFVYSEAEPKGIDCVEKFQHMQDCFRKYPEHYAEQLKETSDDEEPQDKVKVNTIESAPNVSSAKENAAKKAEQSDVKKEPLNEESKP
Description: non-reducing SDS-PAGE and autoradiography of a disulfide-linked intermediate after import into mitochondria; in organello; radiolabeled Cmc1 translation mix added to purified yeast mitochondria (100 ug/mL) in import buffer at 25°C with 1% DMSO, auranofin, MB-6 or MB-7; stopped with 20 mM iodoacetamide; Laemmli buffer without beta-mercaptoethanol.

B1: Cmc1 (protein, UniProt P36064 1-111)
chain: MEQNKDPQMISKHSSRLPIWVLSPREEQQARKNLKTETYKKCANFVQAMADCAKANGMKVFPTCDKQRDEMKSCLLFYQTDEKYLDGERDKIVLEKINKLEKLCQKQSSTK
modifications: [35S]-methionine and cysteine labeled
Turning to B1, the binding result is given as “binds”.
